In publication PMC3747153:
For part of these data: Results from cells or extracts need not show a direct contact. For part of these data: No signal at the amounts used counts as a negative. For part of these data: For at least one entry, the source does not settle the construct or the ends of the probe. For part of these data: At least one verdict was read from the data and is not stated in words by the source.

By UniProt entry, the sequences of proteins in these tests, tags left out. Where a name states a change or a piece, a line headed by the entry shows the natural chain unless it says otherwise.
UniProt G5E8H3, entry or part of it S168A: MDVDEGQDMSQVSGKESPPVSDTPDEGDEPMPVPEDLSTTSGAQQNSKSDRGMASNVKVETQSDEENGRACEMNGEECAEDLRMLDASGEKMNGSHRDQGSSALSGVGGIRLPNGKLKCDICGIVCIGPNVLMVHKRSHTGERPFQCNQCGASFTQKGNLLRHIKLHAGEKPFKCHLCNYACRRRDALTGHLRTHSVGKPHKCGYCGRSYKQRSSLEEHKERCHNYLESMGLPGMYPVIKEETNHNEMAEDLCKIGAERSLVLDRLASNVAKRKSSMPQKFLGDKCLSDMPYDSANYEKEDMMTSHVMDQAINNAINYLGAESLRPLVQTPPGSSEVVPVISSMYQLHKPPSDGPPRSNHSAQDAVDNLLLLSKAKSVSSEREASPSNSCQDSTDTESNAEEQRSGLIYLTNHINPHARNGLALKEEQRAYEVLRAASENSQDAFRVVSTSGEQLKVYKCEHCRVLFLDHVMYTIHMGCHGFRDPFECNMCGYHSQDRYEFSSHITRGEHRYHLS
UniProt G5E8H3, entry or part of it: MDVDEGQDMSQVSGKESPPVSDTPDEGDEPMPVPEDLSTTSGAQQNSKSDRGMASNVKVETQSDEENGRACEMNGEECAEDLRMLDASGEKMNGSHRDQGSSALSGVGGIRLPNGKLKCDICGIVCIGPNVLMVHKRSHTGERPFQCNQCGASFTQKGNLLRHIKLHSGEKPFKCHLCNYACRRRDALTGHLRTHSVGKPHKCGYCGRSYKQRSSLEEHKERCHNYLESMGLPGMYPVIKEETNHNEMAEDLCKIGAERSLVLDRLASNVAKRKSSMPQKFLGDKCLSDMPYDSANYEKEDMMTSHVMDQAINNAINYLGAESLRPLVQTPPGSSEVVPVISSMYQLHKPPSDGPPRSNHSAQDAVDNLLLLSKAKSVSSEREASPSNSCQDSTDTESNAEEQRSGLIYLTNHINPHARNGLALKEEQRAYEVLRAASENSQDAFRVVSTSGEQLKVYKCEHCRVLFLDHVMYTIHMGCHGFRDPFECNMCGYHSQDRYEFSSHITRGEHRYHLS
UniProt G5E8H3, entry or part of it S214A S215A: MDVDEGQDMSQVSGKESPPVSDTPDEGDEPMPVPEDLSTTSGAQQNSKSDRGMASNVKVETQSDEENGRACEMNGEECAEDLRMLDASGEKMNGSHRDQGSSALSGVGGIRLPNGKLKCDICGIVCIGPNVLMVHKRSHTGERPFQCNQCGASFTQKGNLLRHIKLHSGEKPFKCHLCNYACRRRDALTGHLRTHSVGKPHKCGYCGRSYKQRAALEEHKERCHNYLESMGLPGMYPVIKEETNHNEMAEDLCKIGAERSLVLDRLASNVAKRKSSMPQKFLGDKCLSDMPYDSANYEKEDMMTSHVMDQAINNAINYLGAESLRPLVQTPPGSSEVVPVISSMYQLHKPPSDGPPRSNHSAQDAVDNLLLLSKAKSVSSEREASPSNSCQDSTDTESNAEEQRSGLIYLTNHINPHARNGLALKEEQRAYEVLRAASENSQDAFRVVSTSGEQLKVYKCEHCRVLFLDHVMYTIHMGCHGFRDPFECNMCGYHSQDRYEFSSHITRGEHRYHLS
UniProt Q03267: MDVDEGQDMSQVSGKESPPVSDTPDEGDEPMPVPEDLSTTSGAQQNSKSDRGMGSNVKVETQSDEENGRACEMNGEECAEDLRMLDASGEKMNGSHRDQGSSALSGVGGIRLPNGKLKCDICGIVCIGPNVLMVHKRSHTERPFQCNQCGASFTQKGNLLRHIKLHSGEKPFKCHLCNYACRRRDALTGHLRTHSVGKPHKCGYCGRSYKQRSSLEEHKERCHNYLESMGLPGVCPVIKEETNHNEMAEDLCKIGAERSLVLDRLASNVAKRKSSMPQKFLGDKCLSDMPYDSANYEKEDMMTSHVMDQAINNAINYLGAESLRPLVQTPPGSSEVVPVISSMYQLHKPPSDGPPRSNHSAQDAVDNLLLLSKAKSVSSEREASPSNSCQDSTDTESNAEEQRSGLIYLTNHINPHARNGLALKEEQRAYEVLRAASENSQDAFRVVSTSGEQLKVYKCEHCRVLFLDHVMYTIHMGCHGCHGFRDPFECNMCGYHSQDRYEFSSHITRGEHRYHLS

How the values were obtained:
Test in all cases: EMSA
[1] = molecular target: IK S168A (mouse) (UniProt G5E8H3); settings: transfected Hek293T nuclear extract; Chemiluminescent EMSA: 10x buffer 100 mM Tris, 500 mM KCl, 10 mM DTT (1x: 10 mM Tris, 50 mM KCl, 1 mM DTT), 2.5% glycerol, 5 mM MgCl2, 50 ng poly(dI-dC), 0.05% NP-40; protein in an extract; residues 1-515; protein details: FLAG (pCMV6-Entry); label: biotin
[2] = molecular target: IK wild type (mouse) (UniProt G5E8H3); settings: transfected Hek293T nuclear extract; Chemiluminescent EMSA: 10x buffer 100 mM Tris, 500 mM KCl, 10 mM DTT (1x: 10 mM Tris, 50 mM KCl, 1 mM DTT), 2.5% glycerol, 5 mM MgCl2, 50 ng poly(dI-dC), 0.05% NP-40; protein in an extract; residues 1-515; protein details: FLAG (pCMV6-Entry); label: biotin
[3] = molecular target: IK S214A/S215A (mouse) (UniProt G5E8H3); settings: transfected Hek293T nuclear extract, binding abolished; Chemiluminescent EMSA: 10x buffer 100 mM Tris, 500 mM KCl, 10 mM DTT (1x: 10 mM Tris, 50 mM KCl, 1 mM DTT), 2.5% glycerol, 5 mM MgCl2, 50 ng poly(dI-dC), 0.05% NP-40; protein in an extract; residues 1-515; protein details: FLAG (pCMV6-Entry); label: biotin
[4] = molecular target: native IK, Hek293T nuclear extract (human) (UniProt Q13422); settings: Chemiluminescent EMSA: 10x buffer 100 mM Tris, 500 mM KCl, 10 mM DTT (1x: 10 mM Tris, 50 mM KCl, 1 mM DTT), 2.5% glycerol, 5 mM MgCl2, 50 ng poly(dI-dC), 0.05% NP-40, protein in an extract, label: 32P or 3' biotin
[5] = test system: native IK, BCL1 nuclear extract (human); settings: Chemiluminescent EMSA: 10x buffer 100 mM Tris, 500 mM KCl, 10 mM DTT (1x: 10 mM Tris, 50 mM KCl, 1 mM DTT), 2.5% glycerol, 5 mM MgCl2, 50 ng poly(dI-dC), 0.05% NP-40, protein in an extract
[6] = molecular target: MBP-IK1 (unphosphorylated) (mouse) (UniProt Q03267); settings: 200 ng protein, 1 ng probe; Chemiluminescent EMSA: 10x buffer 100 mM Tris, 500 mM KCl, 10 mM DTT (1x: 10 mM Tris, 50 mM KCl, 1 mM DTT), 2.5% glycerol, 5 mM MgCl2, 50 ng poly(dI-dC), 0.05% NP-40; recombinant protein; protein details: N-terminal MBP (pMAL-C2); label: 32P or 3' biotin
[7] = molecular target: MBP-IK1 phosphorylated by BTK (mouse) (UniProt Q03267); settings: BTK-phosphorylated (5 or 30 min kinase assay), augmented versus unphosphorylated; Chemiluminescent EMSA: 10x buffer 100 mM Tris, 500 mM KCl, 10 mM DTT (1x: 10 mM Tris, 50 mM KCl, 1 mM DTT), 2.5% glycerol, 5 mM MgCl2, 50 ng poly(dI-dC), 0.05% NP-40; recombinant protein; protein details: N-terminal MBP (pMAL-C2); label: 32P or 3' biotin

“TATGGCGAGGAAAACTGAAAAAGGTGGAAAATTTAGAAATGT (double strand) [gamma-satellite A]”: binds [1]; binds [2]; no binding [3].
“TCAGCTTTTGGGAATACCCTGTCA (double strand) [IK-BS1]”: no binding ([4]; cells treated with BTK siRNA 72 h, IK level unchanged); binds ([4]; untreated cells); binds ([5]; CD19xCD19-stimulated, abolished by excess unlabeled IK-BS1, LFM-A13 prevents the increase, label: 32P or 3' biotin). “TCAGCTTTTGGGAATACCCTGTCA (double strand) [IK-BS1]”: binds [6]; binds [7].
“TCAGCTTTTGAGAATACCCTGTCA (double strand) [IK-BS5]”: no binding [5].
